# Reference: publication PMC12335937
# Chains of the proteins cited; added tags and fusions are not shown.
# UniProt Q86U44: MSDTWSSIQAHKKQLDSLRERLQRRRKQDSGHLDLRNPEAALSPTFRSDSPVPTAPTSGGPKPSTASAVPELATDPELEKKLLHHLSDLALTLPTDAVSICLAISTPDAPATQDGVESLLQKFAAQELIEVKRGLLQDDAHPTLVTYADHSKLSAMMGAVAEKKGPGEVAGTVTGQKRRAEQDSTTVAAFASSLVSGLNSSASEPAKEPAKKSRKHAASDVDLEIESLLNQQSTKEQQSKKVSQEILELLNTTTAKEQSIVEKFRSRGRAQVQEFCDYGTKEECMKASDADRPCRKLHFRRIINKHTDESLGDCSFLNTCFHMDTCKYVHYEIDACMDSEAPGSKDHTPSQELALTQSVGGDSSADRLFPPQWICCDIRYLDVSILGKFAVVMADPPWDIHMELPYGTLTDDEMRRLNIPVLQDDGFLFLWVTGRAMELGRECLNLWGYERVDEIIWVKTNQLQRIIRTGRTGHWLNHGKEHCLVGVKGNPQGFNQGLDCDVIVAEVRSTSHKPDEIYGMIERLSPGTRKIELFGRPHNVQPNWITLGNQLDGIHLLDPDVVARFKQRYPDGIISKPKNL
# No constants are given. Whether binding was seen depends on the method and setting. Binding seen in cells or lysates may run through a third protein. Some results given as binding are weak or reduced against the parent protein; the word gives no strength. For some assays here: Where a sequence is shown, tags or fusion partners need not be part of it.
# T1: Flag-METTL14 (UniProt Q9HCE5)
# T1 sequence: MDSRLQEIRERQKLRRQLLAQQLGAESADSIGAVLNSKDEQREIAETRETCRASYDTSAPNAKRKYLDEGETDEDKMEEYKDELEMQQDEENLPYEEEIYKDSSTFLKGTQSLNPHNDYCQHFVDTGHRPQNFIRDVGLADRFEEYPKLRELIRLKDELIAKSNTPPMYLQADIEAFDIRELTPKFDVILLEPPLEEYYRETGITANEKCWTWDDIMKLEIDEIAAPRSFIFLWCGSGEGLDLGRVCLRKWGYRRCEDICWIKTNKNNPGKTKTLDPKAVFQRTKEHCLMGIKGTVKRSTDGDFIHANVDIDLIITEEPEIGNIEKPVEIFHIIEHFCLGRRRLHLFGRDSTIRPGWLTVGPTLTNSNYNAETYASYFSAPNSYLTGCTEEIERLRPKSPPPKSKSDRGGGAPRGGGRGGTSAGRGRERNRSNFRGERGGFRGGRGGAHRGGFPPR
# B1: DGCR8 (protein, UniProt Q8WYQ5 1-773)
# chain: METDESPSPLPCGPAGEAVMESRARPFQALPREQSPPPPLQTSSGAEVMDVGSGGDGQSELPAEDPFNFYGASLLSKGSFSKGRLLIDPNCSGHSPRTARHAPAVRKFSPDLKLLKDVKISVSFTESCRSKDRKVLYTGAERDVRAECGLLLSPVSGDVHACPFGGSVGDGVGIGGESADKKDEENELDQEKRVEYAVLDELEDFTDNLELDEEGAGGFTAKAIVQRDRVDEEALNFPYEDDFDNDVDALLEEGLCAPKKRRTEEKYGGDSDHPSDGETSVQPMMTKIKTVLKSRGRPPTEPLPDGWIMTFHNSGVPVYLHRESRVVTWSRPYFLGTGSIRKHDPPLSSIPCLHYKKMKDNEEREQSSDLTPSGDVSPVKPLSRSAELEFPLDEPDSMGADPGPPDEKDPLGAEAAPGALGQVKAKVEVCKDESVDLEEFRSYLEKRFDFEQVTVKKFRTWAERRQFNREMKRKQAESERPILPANQKLITLSVQDAPTKKEFVINPNGKSEVCILHEYMQRVLKVRPVYNFFECENPSEPFGASVTIDGVTYGSGTASSKKLAKNKAARATLEILIPDFVKQTSEEKPKDSEELEYFNHISIEDSRVYELTSKAGLLSPYQILHECLKRNHGMGDTSIKFEVVPGKNQKSEYVMACGKHTVRGWCKNKRVGKQLASQKILQLLHPHVKNWGSLLRMYGRESSKMVKQETSDKSVIELQQYAKKNKPNLHILSKLQEEMKRLAEEREETRKKPKMSIVASAQPGGEPLCTVDV
# Assays:
# Flag-METTL14 = biological target: T1, Flag-METTL14; experiment: co-IP; GBC-SD cells transfected with Flag-METTL3 or Flag-METTL14; lysate in IP buffer, treated with or without RNase A (20 μg/mL); anti-METTL3 or anti-METTL14 antibody with Protein A/G magnetic beads, 4°C, 6 h; western blot
# Flag-METTL3 = Flag-METTL3 (UniProt Q86U44); experiment: as above
binder,measurement,setting,value
B1,binding,Flag-METTL14,binds
same,binding,Flag-METTL3,binds
